The source of these data is PubChem BioAssay AID1671190 (National Center for Advancing Translational Sciences (NCATS), 2021).

Sequences of proteins named here, by UniProt entry; tags and fusion partners are left off. A change or cut given only in a name is not applied to a line headed by its entry.
UniProt P18054: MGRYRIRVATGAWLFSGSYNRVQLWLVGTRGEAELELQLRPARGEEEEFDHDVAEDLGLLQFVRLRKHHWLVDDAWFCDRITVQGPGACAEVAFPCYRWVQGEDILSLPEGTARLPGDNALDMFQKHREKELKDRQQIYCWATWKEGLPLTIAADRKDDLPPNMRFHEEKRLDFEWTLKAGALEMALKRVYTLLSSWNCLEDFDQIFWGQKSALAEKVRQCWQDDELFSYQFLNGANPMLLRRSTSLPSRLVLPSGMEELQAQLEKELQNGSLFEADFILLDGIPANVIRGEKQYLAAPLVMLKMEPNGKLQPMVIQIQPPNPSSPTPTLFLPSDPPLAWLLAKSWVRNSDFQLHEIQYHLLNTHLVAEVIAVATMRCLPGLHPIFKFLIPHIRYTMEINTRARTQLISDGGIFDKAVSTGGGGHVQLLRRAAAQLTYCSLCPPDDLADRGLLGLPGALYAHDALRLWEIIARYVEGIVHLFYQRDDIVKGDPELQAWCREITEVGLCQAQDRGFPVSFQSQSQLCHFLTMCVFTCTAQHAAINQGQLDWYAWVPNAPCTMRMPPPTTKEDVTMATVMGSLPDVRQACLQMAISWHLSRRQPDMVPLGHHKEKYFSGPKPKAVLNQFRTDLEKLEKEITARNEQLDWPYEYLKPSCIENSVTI

Screen size: about 580,000 compounds; about 6,100 (1.1%) were called active. Inconclusive results (about 15%) are left out. The call rests on the fitted dose curve; in most records, active means well fitted inhibition curve with a large enough effect; inconclusive means small, poorly fitted or top-dose-only effect, or another doubt; inactive means no such curve, though single readings can be large or run the other way. This is a selection; strong and weak results do not stand in their true shares. Entries without a call were filed so in the source.
On the % scale 0 is the no-effect control and ±100 the full control effect; potency means the concentration at half of the fitted maximal effect.

For this test, the target named is Polyunsaturated fatty acid lipoxygenase ALOX12 (Homo sapiens) (UniProt P18054). The experiment in a line: Primary qHTS assay for inhibitors of human arachidonate 12S-lipoxygenase (ALOX12): Round 2. The settings on record: purified 12hLO, xylenol orange hydroperoxide absorbance; activity change, negative = inhibition: at 0.00344 µM (top of the series) unless noted. In outline: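 Purified human 12hLO (150 nM final) in 25 mM Hepes, 0.01% Triton X-100, pH 7.0 was preincubated 15 min at room temperature with compound. Then 40 uM arachidonic acid was added, 30 min. Hydroperoxide was read by Fe-XO absorbance ratio 573/405 nm.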
With `Oc1ccc(Nc2ccc3ccccc3c2)cc1`, the Potency is active: 44.7 µM.
Turning to `CCOC(=O)C(C)(C)Oc1ccc(Cl)cc1`, the activity change, negative = inhibition came to 50.5%.
On the same count and under the same terms, the value for `O=C1CCCc2c(O)cccc21` was 3.02%; that for `CO[C@@]1(NC(=O)CSCC#N)C(=O)N2C(C(=O)O)=C(CSc3nnnn3C)CS[C@@H]21` was 17.1%; that for `CCCCOCCOC(=O)c1cccnc1` was 2.98%.
Consider `C[C@]12CC[C@@H]3c4ccc(O)cc4CC[C@H]3[C@@H]1CC[C@@H]2OC(=O)CCC1CCCC1`, for which the activity change, negative = inhibition was -5.12%.
In the case of `CCC(Cc1c(I)cc(I)c(N)c1I)C(=O)O` (centres undefined), the activity change, negative = inhibition is 0.658%.
For `CN(C)c1ccc(O)c2c1C[C@H]1C[C@H]3[C@H](N(C)C)C(=O)C(C(N)=O)=C(O)[C@@]3(O)C(=O)C1=C2O`, the activity change, negative = inhibition was -21.9%.
On the same count and under the same terms, the value for `CCOC(=O)c1cccnc1` was 14.5%; that for `Brc1c(NC2=NCCN2)ccc2nccnc12` was 16.7%.
As for `Cc1ccc2c(Cl)cc(Cl)c(O)c2n1`, the activity change, negative = inhibition was found to be 20.4%.
Consider `CC[N+](CC)(CC)CCCOC(=O)C1(c2ccccc2)CCCC1`, for which the Potency was active: 20 µM.
As for `O=C(OCc1ccccc1)c1ccccc1`, the activity change, negative = inhibition worked out at 0.407%.
In the case of `CCOc1ccc(-n2c(C)cc(/C=C3/C(=N)N4C(=NC3=O)SN=C4S(C)(=O)=O)c2C)cc1`, the Potency was active: 35.5 µM.
On to `CN1CCN(CCC(=O)N2c3ccccc3Sc3ccc(C(F)(F)F)cc32)CC1`, for which the activity change, negative = inhibition came out at 8.58%.
Same read-out and setting: the value for `CC1(C)S[C@@H]2[C@H](NC(=O)C(c3ccccc3)S(=O)(=O)O)C(=O)N2[C@H]1C(=O)O` (some centres undefined) was -13.4%.
Turning to `CC(=NNC(=S)N1CCCCC1)c1ccccn1`, the Potency is active: 44.7 µM.
Same read-out and setting: next, `Cc1cccc(CSc2nnc(CCNC(=O)OC(C)(C)C)o2)c1`: active: 7.94 µM.
As for `CN(C)CC[C@@H](c1ccc(Cl)cc1)c1ccccn1`, the activity change, negative = inhibition was -11.8%.
Turning to `CC(C)C(C#CCN1CCCCC1)(c1ccccc1)c1ccccc1`, the Potency is active: 20 µM.
Still for that read-out and setting: next, `CCc1ccc(-c2c(C)sc(N)c2C#N)cc1`: active: 28.2 µM.
Regarding `Cn1c([N+](=O)[O-])cnc1COC(N)=O`, the activity change, negative = inhibition is -1.95%.
As to `O=C(CSc1nc2cc([N+](=O)[O-])ccc2o1)Nc1ccc(Cl)cc1`, the Potency was active: 22.4 µM.
For the compound `COc1ccc(C(=O)NCc2ccc(OCCN(C)C)cc2)cc1OC`, the activity change, negative = inhibition came out at 23.7%.
The same measure, in the same setting: next, `CCCCCCCCCCCCCCCC[n+]1ccccc1`: 18.1%.
As for `CC(C)(C)c1ccc(-c2cc(C[C@H]3CNCC[C@H]3CC(=O)NCc3cccs3)no2)cc1`, the Potency is active: 39.8 µM.
Same read-out and setting: next, `Cc1ccc(-n2sc3ccccc3c2=O)cc1`: active: 1.12 µM.
In the case of `O=C(O)c1cn(C2CC2)c2cc(Cl)c(F)cc2c1=O`, the activity change, negative = inhibition was -7.72%.
On the same count and under the same terms, next, `O=S(c1cc(Cl)cc(Cl)c1O)c1cc(Cl)cc(Cl)c1O`: -22.7%.
`CCc1cccc2c3c([nH]c12)C(CC)(CC(=O)O)OCC3` (centres undefined): the activity change, negative = inhibition was found to be 4.73%.
As to `COc1ccc(C)cc1Nc1n[n+](-c2ccccc2)c(-c2ccc(C(=O)O)cc2)s1`, the Potency was active: 17.8 µM.
`CC(C)(C)c1ccc(C(=O)CCCCl)cc1`: the activity change, negative = inhibition is -20.5%.
The same measure, in the same setting: the value for `O=C(OCCN1CCOCC1)c1cccnc1Nc1cccc(C(F)(F)F)c1` was -14.4%.
For the compound `OCCOCCN1CCN(C(c2ccccc2)c2ccc(Cl)cc2)CC1` (centres undefined), the activity change, negative = inhibition amounted to 23.7%.
Same read-out and setting: next, `Cc1cc(CCCOc2c(C)cc(-c3noc(C(F)(F)F)n3)cc2C)on1`: -4.08%.
On to `O=C(Nc1cnc(N2CCC(N3CCCCC3)CC2)c(C(=O)O)c1)c1ccc(Br)cc1`, for which the Potency is active: 39.8 µM.
Consider `CC(C)COC(=O)c1ccc(N)cc1`, for which the activity change, negative = inhibition was 0.0104%.
On the same count and under the same terms, the value for `CC[C@H](NC(C)C)[C@H](O)c1ccc(O)c2[nH]c(=O)ccc12` was -28%.
For the compound `O=C(CSc1nc2ccccc2s1)Nc1ccc(F)c(F)c1`, the Potency was active: 35.5 µM.
In the case of `Cc1cnc(NS(=O)(=O)c2ccc(N)cc2)nc1`, the activity change, negative = inhibition stood at 22.5%.
In the case of `O=C(c1ccc(C(F)(F)F)cc1)N1CCC(c2nn(-c3ccc(F)cc3)c(=O)[nH]2)CC1`, the Potency was active: 22.4 µM.
In the case of `COc1cc(C(=O)NC2CCCNC2)cc(OC)c1OC` (centres undefined), the activity change, negative = inhibition was found to be 22.6%.
On the same count and under the same terms, next, `CCCC(=O)O[C@]1(C(=O)CC)CC[C@H]2[C@@H]3CCC4=CC(=O)CC[C@]4(C)[C@H]3[C@@H](O)C[C@@]21C`: -33.6%.
For `CC(=O)OCC1=C(C(=O)O)N2C(=O)[C@@H](NC(=O)CSc3ccncc3)[C@H]2SC1`, the activity change, negative = inhibition worked out at 7.43%.
`O=C1OC(c2ccccc2)(c2cc(Br)ccc2O)c2ccccc21` (centres undefined): the Potency is active: 44.7 µM.
On the same count and under the same terms, next, `CCCCCCCC/C=C\CCCCCCCC(=O)NCCc1ccc(O)c(O)c1`: active: 5.62 µM.
Take `O=C(O)CCC(=O)Nc1ccc(S(=O)(=O)Nc2nccs2)cc1`: the activity change, negative = inhibition was -33.7%.
As for `CC1=C[C@@H](CNCc2ccccc2O)[C@H](C(C)C)C[C@H]1Cc1nc2c(C)cccc2[nH]1`, the Potency was active: 63.1 µM.
For `COc1ccc(C(=O)N2CCN(CC(=O)N3CCOCC3)CC2)cc1`, the activity change, negative = inhibition worked out at 27.5%.
Same read-out and setting: next, `O=C1Cc2cc(Cl)ccc2N1`: 31.7%.
On the same count and under the same terms, next, `CCOC(=O)C1=C[C@]2(CC)CCCN3CCc4c(n1c1ccccc41)[C@@H]32`: 59.6%.
In the case of `Cc1ccc(OC2(C(=O)N3CCCC3c3nccs3)CCNCC2)cc1` (centres undefined), the Potency is active: 17.8 µM.
Consider `CC(C)CCCC(C)CCCC(C)CCCCC(C)CCCC(C)CCCC(C)C` (centres undefined), for which the activity change, negative = inhibition worked out at 10.8%.
Consider `O=c1[nH]c2ccc(Br)cc2c(-c2ccccc2)c1CN1CCCCC1`, for which the Potency is active: 22.4 µM.
